From ChEMBL document CHEMBL3988442, “University of Dundee, Small-Polar-MMV Screening Library” (2021).

Chains of the proteins cited; added tags and fusions are not shown.
UniProt E9BF75, entry or part of it: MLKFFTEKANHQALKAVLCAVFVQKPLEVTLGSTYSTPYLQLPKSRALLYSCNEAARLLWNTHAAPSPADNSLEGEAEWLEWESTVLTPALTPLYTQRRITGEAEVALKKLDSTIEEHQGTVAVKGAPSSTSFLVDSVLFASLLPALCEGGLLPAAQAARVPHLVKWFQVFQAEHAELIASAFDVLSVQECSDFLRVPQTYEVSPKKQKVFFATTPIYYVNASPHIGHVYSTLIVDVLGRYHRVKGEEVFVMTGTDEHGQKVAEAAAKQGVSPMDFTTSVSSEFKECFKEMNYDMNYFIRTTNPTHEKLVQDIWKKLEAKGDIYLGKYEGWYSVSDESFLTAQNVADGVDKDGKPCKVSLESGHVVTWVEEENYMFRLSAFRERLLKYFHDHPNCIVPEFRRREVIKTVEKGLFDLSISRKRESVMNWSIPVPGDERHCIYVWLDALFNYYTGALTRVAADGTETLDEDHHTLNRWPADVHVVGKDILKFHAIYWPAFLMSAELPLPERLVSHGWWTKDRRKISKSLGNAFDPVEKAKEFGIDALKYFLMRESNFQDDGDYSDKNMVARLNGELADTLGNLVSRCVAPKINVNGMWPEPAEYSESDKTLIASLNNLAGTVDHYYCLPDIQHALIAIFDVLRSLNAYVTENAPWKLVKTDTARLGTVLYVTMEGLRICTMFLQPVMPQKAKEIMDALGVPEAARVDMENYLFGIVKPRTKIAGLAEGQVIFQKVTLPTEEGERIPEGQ

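Primary screen of methionyl-tRNA synthetase; the read-out is not stated. Target: Methionyl-tRNA synthetase (putative), Leishmania donovani (UniProt E9BF75). The test concentration is not given. The values are filed as inhibition. Size under these conditions: about 68,000 compounds, about 24 of them at 50% or above in at least one test.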

Results are percentages, as filed. How 0% and 100% were set is not recorded. Most values in the screen are low, and negative values occur. This is an unselected part of the compounds tested.

| # | structure | Inhibition |
|---|---|---|
| 1 | `O=C(c1c[nH]cn1)N1CCC(F)(F)C2(CCN(c3cnccn3)C2)C1` (centres undefined) | 7.092 |
| 2 | `CN(Cc1cccnc1)C(CO)c1cccc(Br)c1` (centres undefined) | 5.621 |
| 3 | `O=C1N(c2cccc(F)c2)Cc2nc(=O)[nH]n21` | 10.13 |
| 4 | `O=C(Cn1cc(C2CC2)nn1)NC(c1cc(F)ccc1F)C1CC1` (centres undefined) | 12.2 |
| 5 | `Cc1nn(C)c(C)c1C1COCCN1c1ncnc2c(C)cccc12` (centres undefined) | 22.81 |
| 6 | `CN(Cc1cnn(C)c1)C(=O)NCC1CCS(=O)(=O)C1` (centres undefined) | 18.98 |
| 7 | `O=C(Nc1ccccc1)N1CCC2(CC(=O)N(c3ccsc3)C2)C1` (centres undefined) | 14.42 |
| 8 | `CC(C)Oc1ccccc1CNC(=O)N1CCC(n2cncn2)CC1` | 16.67 |
| 9 | `CS(=O)(=O)NCC1CCCN(C(=O)c2ccc(Cl)o2)C1` (centres undefined) | 8.711 |
| 10 | `c1cc2c(cc1CN1CCN(Cc3noc(C4CC4)n3)CC1)OCO2` | 23.21 |
| 11 | `O=C(Cc1ccc(F)cc1)NCCNS(=O)(=O)C1CCCC1` | 10.75 |
| 12 | `Cc1cncc(C2CCCN(C(=O)c3cn(C)nc3C)C2)n1` (centres undefined) | 15.29 |
| 13 | `O=S(=O)(c1ccccc1)N1CCCC1c1cc[nH]n1` (centres undefined) | -5.412 |
| 14 | `CS(=O)(=O)N1CCCCCC1C1CCN(Cc2nc(C3CC3)no2)CC1` (centres undefined) | 3.377 |
| 15 | `CC(C)Cc1cc(NC(=O)c2cccnc2)n(C)n1` | 20.23 |
| 16 | `Cc1ccc(CN(Cc2ccccn2)C(=O)CCC2CCCN(C)C2)s1` (centres undefined) | 6.628 |
| 17 | `Cc1ccc(N(C)C2CCN(C(=O)c3ccsc3)CC2)nn1` | 11.74 |
| 18 | `CCCc1noc(CCC(=O)N2CCN(C)CC2c2ccccc2)n1` (centres undefined) | 8.273 |
| 19 | `COCCC(=O)N1CCCC(CCC(=O)NCc2cccc(OC)c2)C1` (centres undefined) | 1.961 |
| 20 | `O=C(Cc1cccc(O)c1)NC1CCN(c2cccc(Cl)c2)C1` (centres undefined) | 9.524 |
| 21 | `Cn1ccnc1NC[C@@H]1CCC[C@@H]2CN(Cc3cccnc3)C[C@@H]21` | 1.987 |
| 22 | `O=c1[nH]c2cc3c(cc2cc1CN1CCCC1c1ccccn1)CCC3` (centres undefined) | 6.162 |
| 23 | `CCCc1nnc(C(=O)N(C)Cc2cnc3ccccn23)o1` | 4.902 |
| 24 | `Cn1nnnc1SC1CCCN(c2cccc(F)c2)C1=O` (centres undefined) | 6.034 |
| 25 | `O=C(CCc1cccnc1)N1CCCC(n2cncn2)C1` (centres undefined) | 1.408 |
| 26 | `NCC(CO)Cc1cccc(OC(F)(F)F)c1` (centres undefined) | -0.2793 |
| 27 | `O=C(C1=CCCCC1)N1CCC2(CC1)COC(COc1ccccn1)C2` (centres undefined) | 14.16 |
| 28 | `CN(Cc1ccc(OC(F)F)cc1)C(=O)CS(=O)(=O)c1ccc(Cl)cc1` | 8.333 |
| 29 | `O=C(NCCc1cccc(O)c1)NC1CCN(c2ccccc2)C1=O` (centres undefined) | 9.756 |
| 30 | `Cn1cc(C2CCCN2CCc2nc3ccccc3c(=O)[nH]2)cn1` (centres undefined) | 15.06 |
| 31 | `CCOCCCNC(=O)CN(c1ccc(C)c(C)c1)S(C)(=O)=O` | 8.571 |
| 32 | `CCN1CCN(c2nc(O)cc(Cc3ccccc3F)n2)CC1` | 12.03 |
| 33 | `CCNC(=O)N(C)C1CCCc2nc(C)sc21` (centres undefined) | 5.966 |
| 34 | `O=C(C1CCCN1S(=O)(=O)C1CCCC1)N1CCSCC1` (centres undefined) | 27.54 |
| 35 | `Cn1cc2c(n1)C(COCC1CC1)CN(Cc1ccsc1)C2` (centres undefined) | 21.9 |
| 36 | `COc1nccnc1N1C[C@@H]2CC[C@H](C1)N(CC=C(C)C)C2=O` | 12.93 |
| 37 | `N#Cc1cc(C#N)c(SCC(=O)Nc2ccc(F)cc2)nc1N` | 23.57 |
| 38 | `Cc1ccc(NC2COC3(CCN(CC(C)C)CC3)C2)nn1` (centres undefined) | 7.971 |
| 39 | `Cc1noc(C)c1CN1CC2(CCN(C(=O)c3cc[nH]n3)C2)CC1=O` (centres undefined) | 6.767 |
| 40 | `Cc1cs/c(=N\C(=O)Cn2nc(N3CCC(C)CC3)ccc2=O)[nH]1` | 7.507 |
| 41 | `COc1ccccc1C(=O)NCC(c1cccn1C)N1CCOCC1` (centres undefined) | -2.428 |
| 42 | `CC1=N[C@@]2(CC[C@@H]3CN(CC4CC4)C[C@@H]32)C(=O)N1CC(C)C` | 14.92 |
| 43 | `CC(C)(CNC(=O)c1ccco1)NC(=O)OC(C)(C)C` | 12.39 |
| 44 | `O=C1CCC2(CCOC2)CN1Cc1nncn1CCc1ccccc1` (centres undefined) | 10.92 |
| 45 | `CCCc1nc(C)c(C(=O)NC2CCN(CC(N)=O)CC2)s1` | 21.33 |
| 46 | `Cc1cc(C)c(Cn2cncn2)cc1CN1CC[C@H](CO)[C@@H](O)C1` | -0.9639 |
| 47 | `COc1ccc2c(c1)OCC(CNC(=O)c1ccc3[nH]nnc3c1)C2` (centres undefined) | 16.21 |
| 48 | `O=C(C1CCOCC1)N1C[C@@H]2[C@@H](C1)OCC(=O)N2CC1CC1` | -138.4 |
| 49 | `O=C([C@H]1CCCO1)N1CC[C@@H](O)[C@@H]1Cc1ccccc1` | -43.27 |
| 50 | `Cc1ncsc1CN1CCC2(CC1)CC(=O)N(Cc1ccc(Cl)cc1)C2` | 16.15 |
| 51 | `CCc1ccc(CNC(=O)NC(C)CN2CCOCC2)s1` (centres undefined) | 11.27 |
| 52 | `Cc1ccc(C(=O)NCc2ccnc(C3CCCOC3)n2)s1` (centres undefined) | 3.488 |
| 53 | `Cc1cc(C)c(CNC(=O)NCC(O)COc2ccccc2)c(=O)[nH]1` (centres undefined) | 4.724 |
| 54 | `c1ncn(CC2CCCCN2Cc2csc(C3CCCC3)n2)n1` (centres undefined) | 9.312 |
| 55 | `Cc1cccc(CN2CC3C[C@]3(NC(=O)c3cccc(F)c3)C2)n1` (some centres undefined) | 13.77 |
| 56 | `COCCN1CCN(CC(=O)N(C)Cc2ccc(F)cc2)CC1C` (centres undefined) | 7.343 |
| 57 | `CCN(CC)C(=O)CNC(=O)N1CCC(c2ccc(OC)cc2)C1` (centres undefined) | 3.553 |
| 58 | `COc1ccc(CN2CCN(C(C)=O)CC2)cc1SC(F)(F)F` | 6.62 |
| 59 | `O=C(c1csc2nc(-c3ccc(Cl)cc3)cn12)N1CCCC(CO)C1` (centres undefined) | 26.2 |
| 60 | `CCc1ncc2c(n1)CN(C(=O)CNC(=O)c1ccccc1)C2` | 2.01 |
| 61 | `COCCNC(=O)[C@H]1C[C@@H]2CCN(c3ccccc3)C[C@H]2O1` | 9.137 |
| 62 | `Cc1nc(C2CCCN(C(=O)Cn3ccccc3=O)C2)no1` (centres undefined) | 12.24 |
| 63 | `Cc1cccc(OCc2nnc(SCC3CCCN(C)C3)o2)c1` (centres undefined) | -4.19 |
| 64 | `Cc1nc(C2CCN(c3ccccc3)CC2)no1` | 1.29 |
| 65 | `CCOCCC(=O)NCC(C)c1ccsc1` (centres undefined) | 2.405 |
| 66 | `Cc1occc1C(=O)N1CCC2(CC1)C(c1cnn(C)c1)CC(=O)N2C` (centres undefined) | 1.684 |
| 67 | `COc1ccnc(N2CCN(C(=O)c3ccc(Cl)o3)CC2)n1` | 14.42 |
| 68 | `c1ccc(Cc2nc(CNC3CCOC4(CCOCC4)C3)no2)cc1` (centres undefined) | 13.45 |
| 69 | `CC(C)c1nc(CN(C)C(=O)C2CC(=O)N(Cc3ccncc3)C2)cs1` (centres undefined) | 0 |
| 70 | `COCCN(CCOC)c1ncccc1Cl` | 6.522 |
| 71 | `O=C(O)CNC(=O)Cc1csc(-c2ccccc2F)n1` | 8.115 |
| 72 | `Cc1nn(C)c2ncnc(N3CCCC(OCc4cccnc4)C3)c12` (centres undefined) | 12.11 |
| 73 | `O=C([C@@H]1CCO[C@@H]2CCN(Cc3ccsc3)C[C@@H]21)N1CCCC1` | 11.94 |
| 74 | `CC(O)CN(c1ccccc1)S(=O)(=O)c1cc(C(=O)O)cc2c1CCC2` (centres undefined) | 12.32 |
| 75 | `N#Cc1cccc(CNc2ccc(F)cc2OCCO)c1` | 12.89 |
| 76 | `COc1ccc2cnn(CC(=O)NCC3CCCO3)c(=O)c2c1OC` (centres undefined) | 14.56 |
| 77 | `Cc1noc(C)c1C(=O)N1CCC2(CC1)c1nc[nH]c1CCN2C` | 10.6 |
| 78 | `Cc1nc2[nH]cnc(NCCCN3CCOCC3)c-2n1` | 16.13 |
| 79 | `COc1cccc([C@@H]2CCN(Cc3cn(C)c4ccccc34)C[C@H]2O)c1` | 11.93 |
| 80 | `CN(C(=O)Cn1nc(-c2ccc(F)cc2)ccc1=O)C1CCS(=O)(=O)C1` (centres undefined) | 11.27 |
| 81 | `O=C(NCC1CCOCC1)[C@H]1C[C@@H]2CCN(Cc3ccccc3)C[C@H]2O1` | 18.36 |
| 82 | `O=C(Nc1ccc(Cl)cn1)C1CCCN(CCc2ccncc2)C1` (centres undefined) | 13.04 |
| 83 | `CC(Cc1ccco1)NS(=O)(=O)N1CCCCCC1` (centres undefined) | 9.192 |

The first 6 entries again:

- O=C(c1c[nH]cn1)N1CCC(F)(F)C2(CCN(c3cnccn3)C2)C1 (centres undefined) : 7.092%
- CN(Cc1cccnc1)C(CO)c1cccc(Br)c1 (centres undefined) : 5.621%
- O=C1N(c2cccc(F)c2)Cc2nc(=O)[nH]n21 : 10.13%
- O=C(Cn1cc(C2CC2)nn1)NC(c1cc(F)ccc1F)C1CC1 (centres undefined) : 12.2%
- Cc1nn(C)c(C)c1C1COCCN1c1ncnc2c(C)cccc12 (centres undefined) : 22.81%
- CN(Cc1cnn(C)c1)C(=O)NCC1CCS(=O)(=O)C1 (centres undefined) : 18.98%